Results are given in words; binding and its absence hold for the method and conditions named. Some entries that bind do so weakly or less than the wild type.
Experiments:
[1] = biological target: T1, binary complex of FGFR1c ligand-binding domain with βKlotho ectodomain (murine; human) (UniProt Q99N32+P11362); assay: SPR competition: increasing FGF21 in solution with a fixed concentration of βKlotho-FGFR1c complex over immobilized FGF21
[2] = biological target: T1, binary complex of FGFR1c ligand-binding domain with βKlotho ectodomain (murine; human); assay: SPR competition: increasing FGF21 with a fixed concentration of βKlotho-FGFR1c complex over immobilized FGF21
[3] = biological target: N-terminally hexahistidine-tagged, mature form of human FGF21 (H29 to S209) (human) (UniProt Q9NSA1); assay: SPR: βKlotho-FGFR1c complex over immobilized FGF21 (FIGS. 7D-7E)
[4] = biological target: N-terminally hexahistidine-tagged, mature form of human FGF21 (H29 to S209) (human) (UniProt Q9NSA1); assay: SPR: βKlotho-FGFR1c complex over immobilized FGF21 (FIGS. 8A-8C)

The chains behind the UniProt entries cited, without tags or fusion partners. Where a name states a change or a piece, a line headed by the entry shows the natural chain unless it says otherwise.
UniProt Q99N32: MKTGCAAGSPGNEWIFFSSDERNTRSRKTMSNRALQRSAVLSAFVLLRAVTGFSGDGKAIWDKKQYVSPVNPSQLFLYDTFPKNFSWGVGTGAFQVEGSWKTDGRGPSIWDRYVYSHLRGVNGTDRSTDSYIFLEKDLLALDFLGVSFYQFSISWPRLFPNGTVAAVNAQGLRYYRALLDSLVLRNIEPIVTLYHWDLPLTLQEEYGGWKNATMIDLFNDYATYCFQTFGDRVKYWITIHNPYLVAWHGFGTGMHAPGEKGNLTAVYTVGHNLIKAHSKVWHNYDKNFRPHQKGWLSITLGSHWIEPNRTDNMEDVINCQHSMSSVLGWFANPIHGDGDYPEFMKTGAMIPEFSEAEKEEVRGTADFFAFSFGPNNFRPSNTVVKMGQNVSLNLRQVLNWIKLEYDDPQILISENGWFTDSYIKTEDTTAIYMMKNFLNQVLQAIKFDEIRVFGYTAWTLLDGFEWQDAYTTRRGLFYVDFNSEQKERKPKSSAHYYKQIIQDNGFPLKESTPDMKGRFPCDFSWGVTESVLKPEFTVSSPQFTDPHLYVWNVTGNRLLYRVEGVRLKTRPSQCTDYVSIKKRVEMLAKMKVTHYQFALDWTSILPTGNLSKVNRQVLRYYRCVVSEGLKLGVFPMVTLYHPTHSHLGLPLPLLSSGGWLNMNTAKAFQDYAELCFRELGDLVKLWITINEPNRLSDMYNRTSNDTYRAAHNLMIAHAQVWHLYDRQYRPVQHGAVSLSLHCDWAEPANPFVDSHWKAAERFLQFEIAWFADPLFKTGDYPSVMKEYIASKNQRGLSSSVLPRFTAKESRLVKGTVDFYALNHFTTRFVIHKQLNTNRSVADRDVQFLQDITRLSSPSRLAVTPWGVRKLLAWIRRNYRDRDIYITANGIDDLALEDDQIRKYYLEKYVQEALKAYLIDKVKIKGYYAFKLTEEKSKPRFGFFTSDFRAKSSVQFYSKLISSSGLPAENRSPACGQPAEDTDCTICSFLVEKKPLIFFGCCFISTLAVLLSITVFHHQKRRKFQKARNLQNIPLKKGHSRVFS
UniProt P11362: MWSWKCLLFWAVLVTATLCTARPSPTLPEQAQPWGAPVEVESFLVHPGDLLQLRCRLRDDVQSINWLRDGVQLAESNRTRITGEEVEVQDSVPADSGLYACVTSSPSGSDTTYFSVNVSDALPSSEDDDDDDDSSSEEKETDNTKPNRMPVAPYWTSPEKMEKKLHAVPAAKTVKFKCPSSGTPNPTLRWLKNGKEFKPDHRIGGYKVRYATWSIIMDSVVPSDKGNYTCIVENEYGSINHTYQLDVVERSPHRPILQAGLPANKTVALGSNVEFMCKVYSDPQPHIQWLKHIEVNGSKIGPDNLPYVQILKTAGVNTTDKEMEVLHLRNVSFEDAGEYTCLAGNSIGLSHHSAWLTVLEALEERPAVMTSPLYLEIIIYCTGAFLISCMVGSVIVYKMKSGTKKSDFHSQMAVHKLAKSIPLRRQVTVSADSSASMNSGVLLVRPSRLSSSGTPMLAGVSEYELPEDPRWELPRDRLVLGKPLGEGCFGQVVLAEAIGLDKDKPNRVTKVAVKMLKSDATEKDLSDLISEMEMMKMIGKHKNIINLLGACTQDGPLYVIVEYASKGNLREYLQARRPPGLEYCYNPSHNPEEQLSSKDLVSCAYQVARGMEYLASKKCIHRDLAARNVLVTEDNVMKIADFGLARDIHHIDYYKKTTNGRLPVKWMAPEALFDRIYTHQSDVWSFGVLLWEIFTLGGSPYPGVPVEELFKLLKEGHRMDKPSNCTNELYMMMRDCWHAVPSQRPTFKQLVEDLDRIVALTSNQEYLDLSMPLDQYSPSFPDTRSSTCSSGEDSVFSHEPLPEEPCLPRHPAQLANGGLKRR
UniProt Q9NSA1: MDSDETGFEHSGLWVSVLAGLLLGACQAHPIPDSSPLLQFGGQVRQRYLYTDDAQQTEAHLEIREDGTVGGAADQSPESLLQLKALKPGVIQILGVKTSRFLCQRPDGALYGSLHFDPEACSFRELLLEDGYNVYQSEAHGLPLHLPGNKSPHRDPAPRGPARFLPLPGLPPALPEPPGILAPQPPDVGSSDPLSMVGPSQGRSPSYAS

| binding [1] | binding [2] | binding [3] | binding [4] | Substance |
| --- | --- | --- | --- | --- |
| binds | binds |  |  | N-terminally hexahistidine-tagged, mature form of human FGF21 (H29 to S209) (from UniProt Q9NSA1 29-209) (ligand) |
|  |  | binds | binds | binary complex of FGFR1c ligand-binding domain with βKlotho ectodomain (from UniProt Q99N32 53-995; P11362 142-365) (receptor) |
